Test results published in the supplement of paper PMC10331698.
± gives the standard deviation of the averaged measurements. Small differences around the control level are noise.

Legend:
Assay in all cases: level (log10 ratio to DMSO vehicle control); higher = higher biomarker level / cell amount than vehicle control
[1] = compound: O=C(O)CCC(F)(F)C(F)(F)C(F)(F)F [3:3 Fluorotelomer carboxylic acid] (in DMSO); details: 2200 nM
Method: (§1)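 BioMAP Diversity Plus panel of 12 human primary cell co-culture systems (3C, 4H, LPS, SAg, BT, BF4T, BE3C, CASM3C, HDF3CGF, KF3CT, MyoF, Mphg). Compounds were added 1 h before stimulation and left for 24 h (MyoF 48 h; BT 72 h for soluble read-outs or 6 d for IgG). Biomarkers were read by ELISA, cytotoxicity by SRB, PBMC viability and proliferation by Alamar Blue. Each well value was divided by the mean of 8 DMSO control wells on the same plate and log10 transformed; duplicate blinded samples were tested at 4 concentrations.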

[2] = compound: O=C(O)C(F)(F)C(F)(F)C(F)(F)C(=O)O [Hexafluoroglutaric acid] (in DMSO)
Method: as §1

[3] = compound: O=C(O)C(F)(OC(F)(F)C(F)(OC(F)(F)C(F)(OC(F)(F)C(F)(F)C(F)(F)F)C(F)(F)F)C(F)(F)F)C(F)(F)F [Perfluoro-(2,5,8-trimethyl-3,6,9-trioxadodecanoic)acid] (in DMSO); details: 370 nM
Method: as §1

[4] = compound: OCC(F)(F)C(F)(F)C(F)(F)C(F)F [1H,1H,5H-Perfluoropentanol] (in DMSO); details: 2200 nM
Method: as §1

[5] = compound: FC(F)(F)C(F)(F)CNCC(F)(F)C(F)(F)F [Bis(1H,1H-perfluoropropyl)amine] (in DMSO); details: 2200 nM
Method: as §1

[6] = compound: O=C(O)C(F)(F)C(F)(F)C(F)(F)C(F)(F)C(F)(F)F [Perfluorohexanoic acid] (in DMSO)
Method: as §1

[7] = compound: O=S(=O)(O)C(F)(F)C(F)(F)C(F)(F)C(F)(F)F [Perfluorobutanesulfonic acid] (in DMSO)
Method: as §1

[8] = compound: O=C(O)C(F)(OC(F)(F)C(F)(F)C(F)(F)F)C(F)(F)F [Ammonium perfluoro-2-methyl-3-oxahexanoate] (in Water)
Method: as §1

[9] = compound: FC(F)(F)COC(OCC(F)(F)F)OCC(F)(F)F [tris(Trifluoroethoxy)methane] (in DMSO); details: 2200 nM
Method: as §1

[10] = compound: O=C(O)C(F)(F)C(F)(F)C(F)(F)OC(F)(C(F)(F)F)C(F)(F)F [Perfluoro-4-isopropoxybutanoic acid] (in DMSO); details: 2200 nM
Method: as §1

[11] = compound: OCC(F)(F)OC(F)(F)C(F)(F)OC(F)(F)CO [1H,1H,8H,8H-Perfluoro-3,6-dioxaoctane-1,8-diol] (in DMSO); details: 2200 nM
Method: as §1

[12] = compound: OCC(F)(F)C(F)(F)C(F)(F)C(F)(F)C(F)(F)C(F)(F)F [6:1 Fluorotelomer alcohol] (in DMSO); details: 2200 nM
Method: as §1

[13] = compound: FC(F)(F)C(F)(F)C(F)(F)C(F)(F)CCI [1H,1H,2H,2H-Perfluorohexyl iodide] (in DMSO); details: 2200 nM
Method: as §1

[14] = compound: C=C(C)C(=O)OCCC(F)(F)C(F)(F)C(F)(F)C(F)(F)C(F)(F)C(F)(F)F [6:2 Fluorotelomer methacrylate] (in DMSO); details: 2200 nM
Method: as §1

[15] = compound: CNS(=O)(=O)C(F)(F)C(F)(F)C(F)(F)C(F)(F)C(F)(F)C(F)(F)C(F)(F)C(F)(F)F [N-Methylperfluorooctanesulfonamide] (in DMSO); details: 2200 nM
Method: as §1

[16] = compound: OCCCC(F)(F)C(F)(F)C(F)(F)C(F)(F)C(F)(F)C(F)(F)C(F)(F)C(F)(F)F [3-(Perfluorooctyl)propanol] (in DMSO); details: 2200 nM
Method: as §1

[17] = compound: OCC(F)(F)C(F)(F)C(F)(F)C(F)(F)C(F)(F)C(F)(F)CO [1H,1H,8H,8H-Perfluorooctane-1,8-diol] (in DMSO); details: 2200 nM
Method: as §1

| Test System | level (log10) [1] | level (log10) ([2]; 2200 nM) | level (log10) ([2]; 6700 nM) | level (log10) ([2]; 20000 nM) | level (log10) ([2]; 60000 nM) | level (log10) [3] | level (log10) [4] | level (log10) [5] | level (log10) ([6]; 2200 nM) | level (log10) ([6]; 6700 nM) | level (log10) ([6]; 20000 nM) | level (log10) ([6]; 60000 nM) | level (log10) ([7]; 2200 nM) | level (log10) ([7]; 6700 nM) | level (log10) ([7]; 20000 nM) | level (log10) ([7]; 60000 nM) | level (log10) ([8]; 2200 nM) | level (log10) ([8]; 6700 nM) | level (log10) ([8]; 20000 nM) | level (log10) ([8]; 60000 nM) | level (log10) [9] | level (log10) [10] | level (log10) [11] | level (log10) [12] | level (log10) [13] | level (log10) [14] | level (log10) [15] | level (log10) [16] | level (log10) [17] |
| --- | --- | --- | --- | --- | --- | --- | --- | --- | --- | --- | --- | --- | --- | --- | --- | --- | --- | --- | --- | --- | --- | --- | --- | --- | --- | --- | --- | --- | --- |
| LPS:CD142/Tissue Factor | -0.019 ± 0.011 | 0.021 ± 0.073 | 0.0325 ± 0.08 | -0.0085 ± 0.077 | -0.0285 ± 0.081 | 0.001 ± 0.0028 | 0.014 ± 0.014 | 0.051 ± 0.072 | 0.0175 ± 0.025 | 0.0205 ± 0.021 | 0.0045 ± 0.011 | 0.015 ± 0.0071 | 0.0575 ± 0.0078 | 0.016 ± 0.038 | -0.0155 ± 0.039 | -0.0175 ± 0.016 | 0.081 ± 0.033 | 0.0885 ± 0.064 | 0.0845 ± 0.028 | 0.075 ± 0.045 | 0.034 ± 0.1 | 0.039 ± 0.018 | -0.0045 ± 0.0092 | -0.0065 ± 0.011 | 0.027 ± 0.0071 | 0.003 ± 0.071 | -0.004 ± 0.027 | -0.0315 ± 0.0092 | -0.025 ± 0.0085 |
| LPS:CXCL8/IL-8 | -0.0065 ± 0.028 | -0.024 ± 0.014 | -0.0235 ± 0.012 | -0.0535 ± 0.018 | -0.028 ± 0.067 | 0.0215 ± 0.025 | -0.012 ± 0.033 | 0.0125 ± 0.036 | 0.0135 ± 0.023 | 0.0035 ± 0.016 | 0.011 ± 0.0028 | 0.0575 ± 0.0035 | 0.014 ± 0.025 | 0.0225 ± 0.019 | 0.0125 ± 0.021 | 0.0765 ± 0.00071 | 0.0265 ± 0.0064 | 0.023 ± 0.031 | 0.0895 ± 0.016 | 0.131 ± 0.017 | 0 ± 0.05 | 0.0315 ± 0.04 | 0.012 ± 0.013 | -0.001 ± 0.021 | 0.0345 ± 0.016 | 0.033 ± 0.059 | 0.0045 ± 0.042 | 0.0085 ± 0.018 | 0.0205 ± 0.021 |
| LPS:IL-1alpha | 0.01 ± 0.057 | 0.0115 ± 0.0035 | -0.023 ± 0.02 | -0.0325 ± 0.0064 | 0.002 ± 0.037 | 0.01 ± 0.035 | -0.0395 ± 0.013 | -0.0235 ± 0.012 | 0.0115 ± 0.012 | 0.0135 ± 0.0064 | 0.0145 ± 0.0092 | -0.003 ± 0.02 | -0.001 ± 0.095 | -0.0445 ± 0.067 | -0.0235 ± 0.013 | -0.0265 ± 0.05 | 0.0815 ± 0.11 | 0.0325 ± 0.04 | 0.0475 ± 0.015 | 0.019 ± 0.062 | 0.0005 ± 0.081 | 0.019 ± 0.062 | -0.0165 ± 0.046 | 0.0185 ± 0.016 | 0.032 ± 0.031 | -0.0015 ± 0.033 | 0.0455 ± 0.025 | 0.0375 ± 0.03 | -0.005 ± 0.034 |
| LPS:M-CSF | 0 ± 0.013 | 0.003 ± 0.035 | 0.024 ± 0.047 | -0.019 ± 0.028 | -0.034 ± 0.051 | -0.0105 ± 0.0021 | 0.017 ± 0.03 | 0.026 ± 0.023 | 0.0065 ± 0.0021 | 0.002 ± 0.0099 | -0.0125 ± 0.015 | -0.0055 ± 0.025 | -0.0155 ± 0.015 | 0.021 ± 0.016 | -0.0035 ± 0.00071 | 0.01 ± 0.014 | -0.0145 ± 0.026 | -0.02 ± 0.024 | -0.009 ± 0.016 | -0.0045 ± 0.005 | 0.008 ± 0.014 | 0.012 ± 0.025 | -0.006 ± 0.0028 | 0.006 ± 0.037 | 0.0155 ± 0.0021 | 0.0045 ± 0.0021 | -0.003 ± 0.014 | 0.003 ± 0.058 | 0.037 ± 0.011 |
| LPS:SRB | 0.004 ± 0.014 | -0.002 ± 0.018 | -0.0025 ± 0.011 | -0.0065 ± 0.016 | 0.01 ± 0.025 | -0.002 ± 0.016 | -0.006 ± 0.013 | 0.0055 ± 0.0035 | -0.004 ± 0.014 | -0.013 ± 0.0071 | -0.009 | -0.0065 ± 0.0078 | 0.009 ± 0.02 | 0.0065 ± 0.011 | 0.004 ± 0.0057 | 0.002 ± 0.0057 | -0.013 ± 0.0028 | -0.009 ± 0.0028 | -0.0075 ± 0.00071 | -0.009 ± 0.0014 | 0.0005 ± 0.005 | -0.008 ± 0.0042 | -0.003 ± 0.018 | -0.001 ± 0.0071 | 0.0115 ± 0.019 | 0.0035 ± 0.015 | 0.0065 ± 0.0035 | 0.0035 ± 0.016 | 0.007 ± 0.014 |
| LPS:sPGE2 | -0.02 ± 0.048 | -0.062 ± 0.011 | -0.0265 ± 0.028 | -0.039 ± 0.031 | -0.0185 ± 0.069 | -0.051 ± 0.018 | 0.0185 ± 0.0021 | -0.0055 ± 0.015 | 0.0035 ± 0.036 | 0.025 ± 0.052 | 0.013 ± 0.021 | -0.009 ± 0.041 | 0.011 ± 0.011 | 0.0595 ± 0.011 | 0.041 ± 0.051 | 0.0355 ± 0.043 | 0.129 ± 0.017 | 0.093 ± 0.061 | 0.0575 ± 0.039 | 0.0765 ± 0.018 | 0.008 ± 0.011 | -0.0255 ± 0.011 | -0.026 ± 0.028 | 0.092 ± 0.017 | -0.021 ± 0.0042 | 0.053 ± 0.025 | 0.0295 ± 0.042 | -0.038 ± 0.024 | -0.006 ± 0.034 |
| LPS:sTNF-alpha | 0.0045 ± 0.011 | 0 ± 0.021 | 0.0045 ± 0.026 | -0.0025 ± 0.022 | 0.0035 ± 0.0064 | -0.024 ± 0.05 | 0.022 ± 0.028 | 0.0045 ± 0.019 | -0.0235 ± 0.029 | -0.009 ± 0.0014 | -0.0005 ± 0.021 | -0.0515 ± 0.0021 | -0.019 ± 0.054 | 0.002 ± 0.028 | -0.0175 ± 0.023 | -0.0075 ± 0.026 | -0.054 ± 0.038 | -0.068 ± 0.021 | -0.0375 ± 0.043 | -0.0225 ± 0.033 | -0.0045 ± 0.016 | 0.0145 ± 0.14 | -0.049 ± 0.013 | 0.003 ± 0.033 | 0.046 ± 0.035 | 0.0275 ± 0.023 | 0.0455 ± 0.013 | -0.136 ± 0.038 | -0.125 ± 0.013 |
| MyoF:CD106/VCAM-1 | -0.0095 ± 0.019 | -0.0255 ± 0.018 | -0.0145 ± 0.021 | -0.023 ± 0.0099 | -0.006 ± 0.0014 | 0.007 ± 0.0085 | -0.015 ± 0.025 | -0.0085 ± 0.0035 | 0.0025 ± 0.0064 | 0.002 ± 0.0057 | 0.002 ± 0.0071 | -0.0095 ± 0.013 | 0.003 ± 0.038 | -0.004 ± 0.0028 | 0.0085 ± 0.0021 | 0.0155 ± 0.016 | -0.0035 ± 0.011 | 0.0105 ± 0.033 | 0.012 ± 0.011 | -0.011 ± 0.0099 | -0.03 ± 0.0042 | 0.0045 ± 0.013 | -0.024 ± 0.02 | 0.0005 ± 0.0064 | -0.001 ± 0.0085 | -0.0075 ± 0.029 | -0.002 ± 0.018 | -0.0085 ± 0.019 | 0.011 ± 0.024 |

Whole records as entered above. Order of values: level (log10) [1]	level (log10) ([2]; 2200 nM)	level (log10) ([2]; 6700 nM)	level (log10) ([2]; 20000 nM)	level (log10) ([2]; 60000 nM)	level (log10) [3]	level (log10) [4]	level (log10) [5]	level (log10) ([6]; 2200 nM)	level (log10) ([6]; 6700 nM)	level (log10) ([6]; 20000 nM)	level (log10) ([6]; 60000 nM)	level (log10) ([7]; 2200 nM)	level (log10) ([7]; 6700 nM)	level (log10) ([7]; 20000 nM)	level (log10) ([7]; 60000 nM)	level (log10) ([8]; 2200 nM)	level (log10) ([8]; 6700 nM)	level (log10) ([8]; 20000 nM)	level (log10) ([8]; 60000 nM)	level (log10) [9]	level (log10) [10]	level (log10) [11]	level (log10) [12]	level (log10) [13]	level (log10) [14]	level (log10) [15]	level (log10) [16]	level (log10) [17]
LPS:CD142/Tissue Factor is listed with -0.019 ± 0.011	0.021 ± 0.073	0.0325 ± 0.08	-0.0085 ± 0.077	-0.0285 ± 0.081	0.001 ± 0.0028	0.014 ± 0.014	0.051 ± 0.072	0.0175 ± 0.025	0.0205 ± 0.021	0.0045 ± 0.011	0.015 ± 0.0071	0.0575 ± 0.0078	0.016 ± 0.038	-0.0155 ± 0.039	-0.0175 ± 0.016	0.081 ± 0.033	0.0885 ± 0.064	0.0845 ± 0.028	0.075 ± 0.045	0.034 ± 0.1	0.039 ± 0.018	-0.0045 ± 0.0092	-0.0065 ± 0.011	0.027 ± 0.0071	0.003 ± 0.071	-0.004 ± 0.027	-0.0315 ± 0.0092	-0.025 ± 0.0085
LPS:IL-1alpha is listed with 0.01 ± 0.057	0.0115 ± 0.0035	-0.023 ± 0.02	-0.0325 ± 0.0064	0.002 ± 0.037	0.01 ± 0.035	-0.0395 ± 0.013	-0.0235 ± 0.012	0.0115 ± 0.012	0.0135 ± 0.0064	0.0145 ± 0.0092	-0.003 ± 0.02	-0.001 ± 0.095	-0.0445 ± 0.067	-0.0235 ± 0.013	-0.0265 ± 0.05	0.0815 ± 0.11	0.0325 ± 0.04	0.0475 ± 0.015	0.019 ± 0.062	0.0005 ± 0.081	0.019 ± 0.062	-0.0165 ± 0.046	0.0185 ± 0.016	0.032 ± 0.031	-0.0015 ± 0.033	0.0455 ± 0.025	0.0375 ± 0.03	-0.005 ± 0.034
